Taken from: PubChem BioAssay AID743454 (Peter MacCallum Cancer Centre, 2014)
This is one part, drawn at random, of about 18,000 deposited reagents. Over the whole deposit, 450 (2.5%) are marked active. 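Single biological run; no consistent viability z cut-off exists, so the class columns, not z-scores, define the calls.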 Entries without a mark were called inactive.

Purpose: 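Knock-downs lowering viability or raising caspase 3/7 activity in vorinostat-treated resistant cells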 (primary screen)
Cells: human HCT116-VR colon cancer cells, selected for vorinostat resistance
Reagents: siRNA pool against human genes, 40 nM siRNA pool
Timing: vorinostat for 24 h, read-out about 72 h after transfection
Conditions: vorinostat at 2.5 µM final
Read-out: 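Cell viability by CellTiter-Fluor and caspase 3/7 activity by luminescence, each scaled to mock wells per plate, duplicates averaged, then robust z-scored over all plates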
Direction: viability robust z-score: higher = more viable cells than screen typical; caspase robust z-score: higher = more caspase 3/7 activity than screen typical
Active means: 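Hits are knock-downs in viability class RV1/RV2 or caspase class CA1/CA2, excluding ones that killed cells in the no-drug cell-count arm; hits then retested with single siRNAs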

The opening 2 records, ahead of the listing:
Target gene | viability hit class | caspase hit class | viability robust z-score | caspase robust z-score
PHTF1 (putative homeodomain transcription factor 1) | no change | no change | -0.26 | -0.54
GALNT8 (polypeptide N-acetylgalactosaminyltransferase 8) | no change | no change | -0.41 | 0.09

Main list, repeating the preview:
Target gene | viability hit class | caspase hit class | viability robust z-score | caspase robust z-score
PHTF1 (putative homeodomain transcription factor 1) | no change | no change | -0.26 | -0.54
GALNT8 (polypeptide N-acetylgalactosaminyltransferase 8) | no change | no change | -0.41 | 0.09
TNFRSF17 (TNF receptor superfamily member 17) | no change | no change | -1.49 | 3.62
TAS2R45 (taste 2 receptor member 45) | no change | no change | -1.29 | 1.44
HERC5 (HECT and RLD domain containing E3 ubiquitin protein ligase 5) | no change | no change | -1.34 | 1.33
ZNF148 (zinc finger protein 148) | no change | no change | 0.5 | 1.44
FUCA1 (alpha-L-fucosidase 1) | no change | no change | 0.04 | 0.26
DCLK1 (doublecortin like kinase 1) | no change | no change | 0.6 | -0.38
TREM2 (triggering receptor expressed on myeloid cells 2) | no change | no change | -1.8 | 4.64
WDR91 (WD repeat domain 91) | no change | no change | 0.22 | 0.18
LY6G5C (lymphocyte antigen 6 family member G5C) | no change | no change | 1.43 | 0
LRP4 (LDL receptor related protein 4) | no change | no change | 0.9 | -0.81
NDUFS2 (NADH:ubiquinone oxidoreductase core subunit S2) | no change | no change | -0.32 | -0.34
HK3 (hexokinase 3) | no change | no change | 0.04 | 1.64
MYOT (myotilin) | no change | no change | 0.87 | 0.93
OR51B6 (olfactory receptor family 51 subfamily B member 6) | no change | no change | 0.8 | -0.21
ANAPC10 (anaphase promoting complex subunit 10) | no change | no change | -1.15 | -0.07
EYA4 (EYA transcriptional coactivator and phosphatase 4) | no change | no change | -0.6 | 0.9
TTLL1 (TTL family tubulin polyglutamylase complex subunit L1) | no change | no change | -0.84 | -0.17
NPFFR2 (neuropeptide FF receptor 2) | no change | no change | -1.08 | 0.29
DNAJB7 (DnaJ heat shock protein family (Hsp40) member B7) | no change | no change | -1.31 | 0.36
GBP6 (guanylate binding protein family member 6) | no change | no change | 0.28 | -0.97
FCRL1 (Fc receptor like 1) | no change | no change | 0.52 | -1.01
